These results are taken from the supplement of paper PMC7125110.

± gives the standard error. Many entries were measured with a wide error.

B1: glmS ribozyme (parent)
chain: AUAAAAGCGCCAGAACUACAGAAAUGUAGUUGACGAGGAGGAGGUUUAUCGAAUUUUCGGCGGAUGCCUCCAAA

Variants of B1 are the subject of the first series. Description: KM; higher = weaker cofactor use; RNA array. The note with it: with glucosamine-6-phosphate. A digest of the protocol:
(§1)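 Glucosamine-6-phosphate (40 μM to 10 mM) in HEPES/KCl/Mg(OAc)2 buffer was flowed over sequenced MiSeq chips, and tiles were imaged over ~14 h. Barcoded ribozyme variants there had been transcribed in situ by E. coli RNA polymerase and were tracked through a hybridised Cy3 probe at 37 °C. One- or two-exponential decay fits to per-tile medians, normalised to baseline and to non-cleaving reference variants, gave kobs. kcat and KM came from weighted Michaelis–Menten fits across concentrations.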
One may read the KM as the concentration of substrate that gives half-maximal velocity. Turning to U56A G66C, the KM came to 933 ± 490 µM.
On the same count and under the same terms, under U55G G60U G63A G66C stands 208 ± 140 µM.
Still for that read-out and setting: under U54C C67U stands 222 ± 130 µM.
With U54C C67G, the KM stood at 534 ± 220 µM.
For G66A C70U, the KM was 1240 ± 660 µM.
Same read-out and setting: under A64U U65G stands 487 ± 360 µM; under G60U C67A C68U, 60.6 ± 48 µM.
C61A C71A: the KM is 152 ± 130 µM.
On the same count and under the same terms, with A53U G66U the figure was 2320 ± 590 µM; with C67A U69C, 244 ± 170 µM.
For the variant U55G C58G, the KM was determined as 6790 ± 1400 µM.
In the case of G59U G66A, the Michaelis constant (KM) worked out at 3110 ± 100 µM.
Still for that read-out and setting: under U65A C67A stands 23.4 ± 15 µM; under U56G C71G, 588 ± 300 µM.

In the next series the parent is B1. The series can be described thus: self-cleavage kobs at 640 uM GlcN6P; higher = faster cleavage; RNA array. To be noted: with glucosamine-6-phosphate. In short, it runs like this:
as §1
As for G29C G40A U56G, the “self-cleavage kobs at 640 uM GlcN6P” value is 2.78e-05 ± 1.7e-05 s⁻¹.
For A12G U65G C67A, the “self-cleavage kobs at 640 uM GlcN6P” value came out at 2.78e-05 ± 1.6e-05 s⁻¹.
In the case of G29U C61G C71A, the “self-cleavage kobs at 640 uM GlcN6P” value stood at 2.65e-05 ± 2.1e-05 s⁻¹.
On to A6C C10A C70G, for which the “self-cleavage kobs at 640 uM GlcN6P” value was 2.75e-05 ± 2.3e-05 s⁻¹.
Same read-out and setting: with A6U A15U the figure was 1.58e-05 ± 1.1e-05 s⁻¹.
The same measure, in the same setting: with A12C C50U the figure was 2.42e-05 ± 1.3e-05 s⁻¹; with A33U C50G, 0.000468 ± 0.00028 s⁻¹; with A6C A53U, 1.46e-05 ± 9.5e-06 s⁻¹.
For the variant A12U A15C G44U, the “self-cleavage kobs at 640 uM GlcN6P” value stood at 2.84e-05 ± 1.8e-05 s⁻¹.
Same read-out and setting: with A14U G62U C70G C71G the figure was 4.87e-05 ± 3.4e-05 s⁻¹.
The same measure, in the same setting: with U31A G44A the figure was 1.27e-05 ± 1.2e-05 s⁻¹; with C16U G66C C67U, 4.12e-05 ± 3.4e-05 s⁻¹; with U30A A39G U49A C68G, 6.36e-05 ± 3.8e-05 s⁻¹.
Same read-out and setting: under A12C G41U C70A stands 0.0199 ± 0.01 s⁻¹; under A12U G41U U46C, 2.78e-05 ± 2.2e-05 s⁻¹; under G7A A33G A52G C68A, 0.00128 ± 0.00068 s⁻¹.
G13U G40C: the “self-cleavage kobs at 640 uM GlcN6P” value was 4.29e-05 ± 2.4e-05 s⁻¹.
Same read-out and setting: under C10A A14G G32U G37U G38U C70A stands 4.16e-05 ± 2.8e-05 s⁻¹; under C11U G29U A42G, 3.84e-05 ± 2.5e-05 s⁻¹; under A12C U46A C71A, 3.69e-05 ± 2.2e-05 s⁻¹.
The same measure, in the same setting: with A12C U46C C50G G63U C67G C68U the figure was 3.42e-05 ± 2.7e-05 s⁻¹.
Same read-out and setting: with C10U C70G the figure was 2.12e-05 ± 1.6e-05 s⁻¹.
Consider C10A A12C U30A U31A, for which the “self-cleavage kobs at 640 uM GlcN6P” value turned out to be 5.2e-05 ± 3.3e-05 s⁻¹.
On the same count and under the same terms, under A14C G29U G37U G38A C70A stands 4.14e-05 ± 2.8e-05 s⁻¹; under G32A G37A U49C G51U G59C C68G, 2.77e-05 ± 2.7e-05 s⁻¹; under C10U U30G C70U, 3.17e-05 ± 2.2e-05 s⁻¹.
The same measure, in the same setting: under C34U G51A C68A stands 0.000265 ± 0.00015 s⁻¹.
Still for that read-out and setting: with C16G C68G the figure was 2.87e-05 ± 2.1e-05 s⁻¹; with C16A A39G C58G C67G, 4.85e-05 ± 2.4e-05 s⁻¹; with C10U A64G, 1.9e-05 ± 1.1e-05 s⁻¹.
In the case of G26U G32U U55G, the “self-cleavage kobs at 640 uM GlcN6P” value was 1.92e-05 ± 1.7e-05 s⁻¹.
Same read-out and setting: with U30A A52U the figure was 2.71e-05 ± 1.9e-05 s⁻¹.

In the next series the parent is B1. Description: self-cleavage kobs at 40 uM GlcN6P; higher = faster cleavage; RNA array. The note with it: with glucosamine-6-phosphate. In short, it runs like this: as §1
Regarding G37A A53G G66A, the “self-cleavage kobs at 40 uM GlcN6P” value stood at 4.54e-05 ± 2.6e-05 s⁻¹.
Same read-out and setting: under C11A C58U C68A stands 5.96e-05 ± 4e-05 s⁻¹; under C11U A12G, 1.89e-05 ± 1.2e-05 s⁻¹; under C16G A39C U54G, 2.28e-05 ± 2.3e-05 s⁻¹.
With C10U C34A C50A G51U C70A, the “self-cleavage kobs at 40 uM GlcN6P” value is 5.78e-05 ± 3.1e-05 s⁻¹.
Consider G40U C70A, for which the “self-cleavage kobs at 40 uM GlcN6P” value came to 1.49e-05 ± 1.1e-05 s⁻¹.
With G32A A39U, the “self-cleavage kobs at 40 uM GlcN6P” value was determined as 1.26e-05 ± 9.9e-06 s⁻¹.
On to A36U C50G G66U, for which the “self-cleavage kobs at 40 uM GlcN6P” value came to 4.11e-05 ± 2.7e-05 s⁻¹.
On to G7C C50G C67U, for which the “self-cleavage kobs at 40 uM GlcN6P” value was determined as 3.53e-05 ± 2.9e-05 s⁻¹.
Take U30C U45A: the “self-cleavage kobs at 40 uM GlcN6P” value was determined as 2.63e-05 ± 2e-05 s⁻¹.
Regarding A33U C50G, the “self-cleavage kobs at 40 uM GlcN6P” value is 3.06e-05 ± 1.7e-05 s⁻¹.
The same measure, in the same setting: under G9A C34U A36C C50G stands 5.21e-05 ± 2.9e-05 s⁻¹.
Still for that read-out and setting: with A53U G66U the figure was 1.3e-05 ± 1.1e-05 s⁻¹; with A15C U30C C70A C71G, 5.3e-05 ± 3e-05 s⁻¹; with G13A A36U C70A, 3.98e-05 ± 3.1e-05 s⁻¹.
Turning to C58U C68A C71G, the “self-cleavage kobs at 40 uM GlcN6P” value was determined as 2.77e-05 ± 2.4e-05 s⁻¹.
For C10A C11U C70A, the “self-cleavage kobs at 40 uM GlcN6P” value turned out to be 3.27e-05 ± 2.7e-05 s⁻¹.
The same measure, in the same setting: with C8U C70G the figure was 1.95e-05 ± 1.8e-05 s⁻¹; with A14G C50U A52C C70A, 3.4e-05 ± 2e-05 s⁻¹; with U30G U54A C67G, 3.35e-05 ± 2.7e-05 s⁻¹.
With G26U C70G, the “self-cleavage kobs at 40 uM GlcN6P” value was 1.62e-05 ± 1.5e-05 s⁻¹.
On the same count and under the same terms, under C34A C67G C68A stands 3.83e-05 ± 2.1e-05 s⁻¹; under A39G G40U U56A, 5.15e-05 ± 2.8e-05 s⁻¹.
The same measure, in the same setting: under G29U G32A A39U stands 3.06e-05 ± 2e-05 s⁻¹; under U47G A48U U56G C68A, 3.23e-05 ± 2.4e-05 s⁻¹; under G32A U56A C67G, 2.61e-05 ± 2.5e-05 s⁻¹.
The same measure, in the same setting: with G29C G66A the figure was 3.28e-05 ± 1.7e-05 s⁻¹; with U54G U65C, 2.34e-05 ± 1.2e-05 s⁻¹.
For the variant A14U G29A, the “self-cleavage kobs at 40 uM GlcN6P” value was determined as 1.54e-05 ± 1.4e-05 s⁻¹.
Same read-out and setting: with U47A U65C the figure was 3.24e-05 ± 2.3e-05 s⁻¹.
Take A15U G35C G38U U47G U69G: the “self-cleavage kobs at 40 uM GlcN6P” value was 5.59e-05 ± 3.1e-05 s⁻¹.

In the next series the parent is B1. Description: self-cleavage kobs at 2500 uM GlcN6P; higher = faster cleavage; RNA array. The note with it: with glucosamine-6-phosphate. In short, it runs like this: as §1
Regarding C10U C34A C50A G51U C70A, the “self-cleavage kobs at 2500 uM GlcN6P” value amounted to 4.76e-05 ± 2.8e-05 s⁻¹.
The same measure, in the same setting: under C16U G66C C67U stands 2.92e-05 ± 2e-05 s⁻¹; under C67A U69C, 0.01 ± 0.0094 s⁻¹.
Regarding A12C G41U C70A, the “self-cleavage kobs at 2500 uM GlcN6P” value was 0.0234 ± 0.014 s⁻¹.
Still for that read-out and setting: with C10A A14G G32U G37U G38U C70A the figure was 5.11e-05 ± 2.8e-05 s⁻¹; with C11U G29U A42G, 5.85e-05 ± 5.4e-05 s⁻¹.
Regarding A12C U46C C50G G63U C67G C68U, the “self-cleavage kobs at 2500 uM GlcN6P” value stood at 5.45e-05 ± 2.8e-05 s⁻¹.
Still for that read-out and setting: with C10U U30G C70U the figure was 4.45e-05 ± 2.3e-05 s⁻¹; with U65A C67A, 0.00287 ± 0.0016 s⁻¹.

Variants of B1 are the subject of a further series. Description: self-cleavage kobs at 10000 uM GlcN6P; higher = faster cleavage; RNA array. To be noted: with glucosamine-6-phosphate. In short, it runs like this: as §1
Turning to G7C C50G C67U, the “self-cleavage kobs at 10000 uM GlcN6P” value turned out to be 3.11e-05 ± 1.6e-05 s⁻¹.
On the same count and under the same terms, with G9A C34U A36C C50G the figure was 4.13e-05 ± 2.6e-05 s⁻¹; with C16U G66C C67U, 3.66e-05 ± 2.1e-05 s⁻¹.
The same measure, in the same setting: with C8U C70G the figure was 0.000827 ± 0.00064 s⁻¹; with A14G C50U A52C C70A, 2.4e-05 ± 2.3e-05 s⁻¹; with U30G U54A C67G, 0.000618 ± 0.00032 s⁻¹.
On the same count and under the same terms, with G59U G66A the figure was 2.03e-05 ± 1.3e-05 s⁻¹; with U65A C67A, 0.00291 ± 0.0016 s⁻¹.

Variants of B1 are the subject of another series. The series can be described thus: self-cleavage kobs at 160 uM GlcN6P; higher = faster cleavage; RNA array. To be noted: with glucosamine-6-phosphate. A digest of the protocol: as §1
With A33U C50G, the “self-cleavage kobs at 160 uM GlcN6P” value stood at 3.32e-05 ± 2.5e-05 s⁻¹.
On the same count and under the same terms, with C10A C11U C70A the figure was 7.65e-05 ± 4.1e-05 s⁻¹; with C10U C70G, 2.21e-05 ± 1.2e-05 s⁻¹.
